# Taken from: PubChem BioAssay AID602196 (INSERM, 2012)
# Test: 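Knock-downs that protect lung cancer cells from cisplatin or sensitise them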
# Cell system: human A549 lung cancer cells
# Reagent: siRNA pair against human genes
# Time to read-out: 48 h transfection before cisplatin; time from cisplatin to read-out not stated
# Challenge: cisplatin at a dose killing half of control-siRNA cells; exact dose and duration not given
# Read-out: 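Shift in cisplatin death relative to control siRNA, from -50 (all cells die) to +50 (no cells die); siRNAs harmful on their own scored 0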
# Scale: two-siRNA summed score (-2 to +2): higher = both siRNAs protect from cisplatin killing; -2 means both sensitise; mean protection from cisplatin (shift in death) and protection from cisplatin (shift in death), siRNA C and protection from cisplatin (shift in death), siRNA D: higher = protection from cisplatin killing
# Rule for the call: 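Each siRNA scores 0 if harmful alone by LDH or WST-1, otherwise +1 if it reduces and -1 if it increases cisplatin killing; a gene is active when both siRNAs agree (sum +2 or -2)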
# Calls: active = both siRNAs shift cisplatin killing the same way; inactive = no consistent shift, or siRNA harmful alone
# The deposit covers about 23,000 reagents; this is a random part of them. Of all reagents, 455 (2%) are marked active. 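Active includes both protection and sensitisation; some change values fall well beyond the stated -50 to +50 range.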 Not given: the amount of reagent.
gene knocked down,two-siRNA summed score (-2 to +2),mean protection from cisplatin (shift in death) (%),"protection from cisplatin (shift in death), siRNA C (%)","protection from cisplatin (shift in death), siRNA D (%)",outcome
OR6W1P,1,16.5,-3.2,36.3,inactive
HAVCR2,0,2.1,2.6,1.7,inactive
SPTSSA,1,7.8,-5.8,21.5,inactive
KBTBD8,0,-2.5,-3.1,-1.8,inactive
ODAM,0,-0.5,3.3,-4.3,inactive
IRAG2,-2,-20.2,-22.9,-17.4,active
TUBA3D,0,-0.8,-21.6,20,inactive
CXCL8,0,-1.8,-3.8,0.3,inactive
COXFA4L2,0,6.4,2.7,10,inactive
NYX,0,0.4,9,-8.2,inactive
ROPN1L,0,-1.6,-7.6,4.5,inactive
LRATD1,0,-15.1,-15.9,-14.3,inactive
SAG,-1,-14.9,-6.8,-23.1,inactive
NTN4,0,-5.9,3.9,-15.8,inactive
INO80D,0,-6.7,-11.2,-2.2,inactive
RASGRP3,0,5.3,4.1,6.5,inactive
LOC392459,1,7.5,15.4,-0.4,inactive
RPL7A,0,16.8,12.8,20.8,inactive
STT3B,2,21.2,16.6,25.8,active
LOC402643,0,1.1,3.7,-1.5,inactive
CSMD1,0,2.1,-8.3,12.5,inactive
LOC147294,0,4.4,2.8,6,inactive
NXPH3,1,12.9,29.6,-3.9,inactive
CCNC,0,-7.2,-8.6,-5.9,inactive
MICOS13,-1,-18.4,-15.9,-20.9,inactive
LOC401530,0,10.7,19.3,2.1,inactive

5 successive reagents already listed, quoted:
gene knocked down,two-siRNA summed score (-2 to +2),mean protection from cisplatin (shift in death) (%),"protection from cisplatin (shift in death), siRNA C (%)","protection from cisplatin (shift in death), siRNA D (%)",outcome
OR6W1P,1,16.5,-3.2,36.3,inactive
HAVCR2,0,2.1,2.6,1.7,inactive
SPTSSA,1,7.8,-5.8,21.5,inactive
KBTBD8,0,-2.5,-3.1,-1.8,inactive
ODAM,0,-0.5,3.3,-4.3,inactive

Additional results follow:
gene knocked down,two-siRNA summed score (-2 to +2),mean protection from cisplatin (shift in death) (%),"protection from cisplatin (shift in death), siRNA C (%)","protection from cisplatin (shift in death), siRNA D (%)",outcome
LOC440606,0,13.5,10.7,16.3,inactive
OCA2,1,-0.6,-18.6,17.4,inactive
LOC440055,0,16.8,10.7,22.8,inactive
DDX10,0,-6.4,-8.4,-4.3,inactive
ANGPT1,0,8.6,3.8,13.3,inactive
PP2D1,1,11.3,23.6,-1,inactive
HOXB2,0,14.6,15.3,13.9,inactive
LOC390530,0,25.2,57.6,-7.3,inactive
RUNX1T1,0,-6.4,-14.6,1.7,inactive
SLC35F4,0,1.9,6.4,-2.6,inactive
ZNF662,0,1.1,-2.6,4.9,inactive
MGC26143,0,8.5,13.8,3.1,inactive
PLCH1,-1,-26.2,-37.9,-14.5,inactive
LOC284379,0,7.6,7.1,8.1,inactive
MYO1H,0,0.4,4.8,-4,inactive
MLLT1,0,-5,-9.9,-0.2,inactive
LOC440338,0,9.1,13.6,4.6,inactive
LOC283257,1,21.5,15.3,27.8,inactive
EGFL8,1,8.7,8.5,8.8,inactive
SPNS1,0,-1,2.4,-4.4,inactive
SOAT2,0,9.7,7.5,11.9,inactive
ZNF70,1,11.3,24.7,-2.1,inactive
GPR137B,0,-7.2,6.6,-21,inactive
MYO18B,0,3,9.5,-3.4,inactive
MAGEH1,0,9.6,13.2,6,inactive
ORM1,0,-6.3,-7.3,-5.3,inactive
CYRIB,0,-3.5,-3.1,-4,inactive
LOC339809,1,13.9,15.1,12.7,inactive
LOC401460,1,14.2,10.3,18.1,inactive
BPIFC,0,-4.4,3,-11.7,inactive
C1GALT1,1,11.3,12.8,9.9,inactive
